Assay results published in paper PMC7570844, “Skin Damages—Structure Activity Relationship of Benzimidazole Derivatives Bearing a 5-Membered Ring System” (Molecules, 2020).

How the values were obtained:
Assay in all cases: Antidermatophyte plaque growth inhibition
Type in all cases: cell-based
[1] = system: Microsporum gypseum; conditions: Nannizzia gypsea; M. gypseum growth
[2] = system: Microsporum canis; conditions: M. canis growth
[3] = system: Trichophyton mentagrophytes; conditions: T. mentagrophytes growth
[4] = system: Trichophyton tonsurans; conditions: T. tonsurans growth
[5] = system: Epidermophyton floccosum; conditions: E. floccosum growth

## Clc1ccc(COC(Cn2ccnc2)c2ccc(Cl)cc2Cl)cc1 (centres unmarked) [Econazole nitrate, reference compound]
[1]
  IC50: 0.05 ± 0.0001 µg/mL
[2]
  IC50: 0.51 ± 0.02 µg/mL
[3]
  IC50: 0.006 ± 0.0001 µg/mL
[4]
  IC50: 0.13 ± 0.008 µg/mL
[5]
  IC50: 0.47 ± 0.015 µg/mL
